{
  "sequences": {"note": "By UniProt entry, the sequences of proteins in these tests, tags left out. Where a name states a change or a piece, a line headed by the entry shows the natural chain unless it says otherwise.", "UniProt Q7Z460": "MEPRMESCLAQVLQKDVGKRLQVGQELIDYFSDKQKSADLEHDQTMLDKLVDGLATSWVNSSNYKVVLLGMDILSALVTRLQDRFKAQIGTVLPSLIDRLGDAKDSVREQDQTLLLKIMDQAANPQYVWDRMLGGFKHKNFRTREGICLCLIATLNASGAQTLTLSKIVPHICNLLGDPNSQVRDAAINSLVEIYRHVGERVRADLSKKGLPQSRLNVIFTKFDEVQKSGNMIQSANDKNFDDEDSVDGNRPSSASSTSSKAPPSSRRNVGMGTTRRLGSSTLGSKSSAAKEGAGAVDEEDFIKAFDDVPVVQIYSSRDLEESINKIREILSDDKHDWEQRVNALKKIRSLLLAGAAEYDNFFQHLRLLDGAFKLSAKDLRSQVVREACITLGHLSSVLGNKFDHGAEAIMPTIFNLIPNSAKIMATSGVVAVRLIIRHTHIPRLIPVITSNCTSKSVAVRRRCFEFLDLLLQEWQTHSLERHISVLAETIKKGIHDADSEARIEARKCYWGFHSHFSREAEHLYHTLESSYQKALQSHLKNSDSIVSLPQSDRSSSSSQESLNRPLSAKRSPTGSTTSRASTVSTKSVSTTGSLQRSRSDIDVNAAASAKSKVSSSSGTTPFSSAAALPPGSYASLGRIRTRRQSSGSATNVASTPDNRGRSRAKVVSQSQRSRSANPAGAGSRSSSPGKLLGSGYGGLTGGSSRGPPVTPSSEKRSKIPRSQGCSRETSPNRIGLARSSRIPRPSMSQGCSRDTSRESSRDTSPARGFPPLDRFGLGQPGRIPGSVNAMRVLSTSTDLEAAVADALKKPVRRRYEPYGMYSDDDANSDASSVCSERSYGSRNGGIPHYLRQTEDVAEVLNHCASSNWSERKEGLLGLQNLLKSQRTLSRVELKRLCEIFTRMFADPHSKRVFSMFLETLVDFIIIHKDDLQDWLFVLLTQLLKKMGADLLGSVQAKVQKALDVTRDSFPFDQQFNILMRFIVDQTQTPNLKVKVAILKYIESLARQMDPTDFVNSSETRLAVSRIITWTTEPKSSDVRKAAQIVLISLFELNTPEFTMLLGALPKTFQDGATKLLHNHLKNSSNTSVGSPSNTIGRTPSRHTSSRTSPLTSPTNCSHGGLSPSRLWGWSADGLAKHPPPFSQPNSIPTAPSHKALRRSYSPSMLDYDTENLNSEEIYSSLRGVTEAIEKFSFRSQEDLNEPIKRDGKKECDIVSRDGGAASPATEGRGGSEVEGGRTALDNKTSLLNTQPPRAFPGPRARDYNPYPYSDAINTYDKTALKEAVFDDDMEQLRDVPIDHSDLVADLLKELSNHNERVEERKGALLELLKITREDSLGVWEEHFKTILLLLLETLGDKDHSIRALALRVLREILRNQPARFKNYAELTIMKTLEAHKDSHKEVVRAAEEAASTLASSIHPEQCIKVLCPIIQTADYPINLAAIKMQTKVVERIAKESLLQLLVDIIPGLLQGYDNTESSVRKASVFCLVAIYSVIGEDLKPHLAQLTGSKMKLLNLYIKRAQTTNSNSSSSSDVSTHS", "UniProt P33552, whole entry, looked up": "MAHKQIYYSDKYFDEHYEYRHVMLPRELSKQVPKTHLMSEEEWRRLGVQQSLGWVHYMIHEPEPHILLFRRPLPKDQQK", "UniProt Q9Y3Y2": "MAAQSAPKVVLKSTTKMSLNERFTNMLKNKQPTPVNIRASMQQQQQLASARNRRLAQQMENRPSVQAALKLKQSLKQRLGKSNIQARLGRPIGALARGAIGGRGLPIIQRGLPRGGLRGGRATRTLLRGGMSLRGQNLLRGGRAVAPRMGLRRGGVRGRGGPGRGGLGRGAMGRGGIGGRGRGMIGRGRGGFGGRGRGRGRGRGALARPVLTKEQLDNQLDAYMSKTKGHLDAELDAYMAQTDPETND", "UniProt Q96AJ1": "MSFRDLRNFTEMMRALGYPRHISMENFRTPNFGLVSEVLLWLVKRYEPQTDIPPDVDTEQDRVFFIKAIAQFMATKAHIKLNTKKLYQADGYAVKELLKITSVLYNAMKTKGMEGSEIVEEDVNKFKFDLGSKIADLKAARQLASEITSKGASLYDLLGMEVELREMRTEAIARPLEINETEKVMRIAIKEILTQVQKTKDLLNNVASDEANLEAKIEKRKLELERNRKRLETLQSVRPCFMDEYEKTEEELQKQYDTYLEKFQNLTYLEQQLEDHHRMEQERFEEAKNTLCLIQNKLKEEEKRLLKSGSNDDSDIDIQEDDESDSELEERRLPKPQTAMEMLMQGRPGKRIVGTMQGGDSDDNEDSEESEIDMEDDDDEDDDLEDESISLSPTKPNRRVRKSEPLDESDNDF", "UniProt Q86X95": "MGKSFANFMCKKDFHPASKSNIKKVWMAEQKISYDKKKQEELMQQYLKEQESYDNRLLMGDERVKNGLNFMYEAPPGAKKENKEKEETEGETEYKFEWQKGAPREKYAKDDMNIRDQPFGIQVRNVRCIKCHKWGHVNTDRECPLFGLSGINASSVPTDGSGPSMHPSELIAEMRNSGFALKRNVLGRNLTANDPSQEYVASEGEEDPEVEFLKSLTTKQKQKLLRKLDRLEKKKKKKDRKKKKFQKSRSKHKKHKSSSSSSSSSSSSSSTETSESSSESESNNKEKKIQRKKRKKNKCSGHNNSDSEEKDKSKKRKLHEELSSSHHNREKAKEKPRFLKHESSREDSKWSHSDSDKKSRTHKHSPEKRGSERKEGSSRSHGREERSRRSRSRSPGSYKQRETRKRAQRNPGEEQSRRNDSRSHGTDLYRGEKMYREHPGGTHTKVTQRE", "UniProt Q9BRQ6": "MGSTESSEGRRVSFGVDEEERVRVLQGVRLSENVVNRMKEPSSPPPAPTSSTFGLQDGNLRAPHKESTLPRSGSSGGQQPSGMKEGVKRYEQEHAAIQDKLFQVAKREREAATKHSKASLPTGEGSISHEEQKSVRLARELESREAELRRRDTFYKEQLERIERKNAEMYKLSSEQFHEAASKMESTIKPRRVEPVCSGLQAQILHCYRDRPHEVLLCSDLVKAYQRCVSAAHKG", "UniProt Q9UDT6": "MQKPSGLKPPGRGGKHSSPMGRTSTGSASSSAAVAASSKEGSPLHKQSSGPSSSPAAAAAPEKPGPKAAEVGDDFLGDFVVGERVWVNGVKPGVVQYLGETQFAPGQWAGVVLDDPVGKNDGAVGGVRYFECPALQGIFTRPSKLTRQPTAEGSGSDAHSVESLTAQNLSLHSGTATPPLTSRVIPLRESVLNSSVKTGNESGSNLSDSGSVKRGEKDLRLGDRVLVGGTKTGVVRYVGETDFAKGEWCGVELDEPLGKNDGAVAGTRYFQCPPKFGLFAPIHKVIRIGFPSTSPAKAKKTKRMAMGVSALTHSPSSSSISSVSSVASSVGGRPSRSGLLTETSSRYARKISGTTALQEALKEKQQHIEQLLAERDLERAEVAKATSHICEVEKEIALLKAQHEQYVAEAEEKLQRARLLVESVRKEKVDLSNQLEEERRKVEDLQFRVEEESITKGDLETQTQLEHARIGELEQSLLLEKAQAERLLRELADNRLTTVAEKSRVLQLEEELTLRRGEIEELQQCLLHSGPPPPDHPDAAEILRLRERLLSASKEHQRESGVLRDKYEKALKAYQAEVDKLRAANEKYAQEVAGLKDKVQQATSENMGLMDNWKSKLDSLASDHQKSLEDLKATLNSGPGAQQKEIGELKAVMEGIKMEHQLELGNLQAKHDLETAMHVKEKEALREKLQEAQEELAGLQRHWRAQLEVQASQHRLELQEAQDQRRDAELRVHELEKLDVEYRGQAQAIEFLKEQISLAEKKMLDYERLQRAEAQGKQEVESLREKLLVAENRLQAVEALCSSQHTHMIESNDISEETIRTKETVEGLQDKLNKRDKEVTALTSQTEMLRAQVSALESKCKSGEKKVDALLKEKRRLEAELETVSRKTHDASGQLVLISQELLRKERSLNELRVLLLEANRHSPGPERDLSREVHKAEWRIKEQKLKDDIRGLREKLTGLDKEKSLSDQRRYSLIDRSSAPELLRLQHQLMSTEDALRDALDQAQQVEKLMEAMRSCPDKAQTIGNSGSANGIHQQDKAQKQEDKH", "UniProt Q8IZ52": "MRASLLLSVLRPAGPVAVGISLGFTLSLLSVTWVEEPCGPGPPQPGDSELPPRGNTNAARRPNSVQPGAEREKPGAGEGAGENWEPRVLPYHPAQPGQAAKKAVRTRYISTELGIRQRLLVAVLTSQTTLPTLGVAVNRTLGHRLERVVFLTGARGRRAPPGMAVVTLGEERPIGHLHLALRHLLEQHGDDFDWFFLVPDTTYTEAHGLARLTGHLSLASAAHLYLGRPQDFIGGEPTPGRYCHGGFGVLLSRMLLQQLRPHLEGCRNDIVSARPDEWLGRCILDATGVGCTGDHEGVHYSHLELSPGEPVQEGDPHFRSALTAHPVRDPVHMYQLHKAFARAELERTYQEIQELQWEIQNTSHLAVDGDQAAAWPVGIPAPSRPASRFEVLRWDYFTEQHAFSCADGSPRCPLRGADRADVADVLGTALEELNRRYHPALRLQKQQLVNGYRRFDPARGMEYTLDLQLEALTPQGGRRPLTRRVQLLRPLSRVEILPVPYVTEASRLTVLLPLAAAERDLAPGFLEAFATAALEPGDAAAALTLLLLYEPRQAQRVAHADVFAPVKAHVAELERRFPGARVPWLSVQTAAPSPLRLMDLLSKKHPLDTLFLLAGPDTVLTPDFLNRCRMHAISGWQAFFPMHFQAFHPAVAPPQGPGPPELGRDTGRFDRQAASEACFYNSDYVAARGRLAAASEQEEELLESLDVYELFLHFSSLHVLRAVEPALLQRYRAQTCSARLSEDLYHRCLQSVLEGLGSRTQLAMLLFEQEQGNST", "UniProt Q96NY7": "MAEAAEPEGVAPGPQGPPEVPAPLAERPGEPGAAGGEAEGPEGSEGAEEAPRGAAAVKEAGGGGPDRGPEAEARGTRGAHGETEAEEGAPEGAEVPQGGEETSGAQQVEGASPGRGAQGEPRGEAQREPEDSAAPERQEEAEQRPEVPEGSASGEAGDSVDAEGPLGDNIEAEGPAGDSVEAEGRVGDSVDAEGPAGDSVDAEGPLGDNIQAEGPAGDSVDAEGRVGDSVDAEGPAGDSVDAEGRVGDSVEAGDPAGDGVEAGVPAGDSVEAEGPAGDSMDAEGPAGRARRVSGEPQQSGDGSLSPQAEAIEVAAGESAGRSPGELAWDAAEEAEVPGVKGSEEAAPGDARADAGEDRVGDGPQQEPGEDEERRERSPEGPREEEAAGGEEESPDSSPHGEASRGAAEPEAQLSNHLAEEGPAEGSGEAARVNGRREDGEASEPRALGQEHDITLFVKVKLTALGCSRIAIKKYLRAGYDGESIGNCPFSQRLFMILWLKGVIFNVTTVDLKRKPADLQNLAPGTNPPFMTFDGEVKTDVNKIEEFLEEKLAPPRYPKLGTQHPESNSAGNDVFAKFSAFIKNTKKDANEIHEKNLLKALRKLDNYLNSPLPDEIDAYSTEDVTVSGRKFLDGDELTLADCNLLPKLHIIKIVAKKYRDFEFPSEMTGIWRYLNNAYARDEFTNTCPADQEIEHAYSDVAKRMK", "UniProt P62633": "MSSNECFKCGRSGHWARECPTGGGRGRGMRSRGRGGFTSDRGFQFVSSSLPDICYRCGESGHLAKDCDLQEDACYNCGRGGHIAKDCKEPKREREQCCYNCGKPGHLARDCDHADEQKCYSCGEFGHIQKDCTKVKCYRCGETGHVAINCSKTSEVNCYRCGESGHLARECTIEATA", "UniProt P51795": "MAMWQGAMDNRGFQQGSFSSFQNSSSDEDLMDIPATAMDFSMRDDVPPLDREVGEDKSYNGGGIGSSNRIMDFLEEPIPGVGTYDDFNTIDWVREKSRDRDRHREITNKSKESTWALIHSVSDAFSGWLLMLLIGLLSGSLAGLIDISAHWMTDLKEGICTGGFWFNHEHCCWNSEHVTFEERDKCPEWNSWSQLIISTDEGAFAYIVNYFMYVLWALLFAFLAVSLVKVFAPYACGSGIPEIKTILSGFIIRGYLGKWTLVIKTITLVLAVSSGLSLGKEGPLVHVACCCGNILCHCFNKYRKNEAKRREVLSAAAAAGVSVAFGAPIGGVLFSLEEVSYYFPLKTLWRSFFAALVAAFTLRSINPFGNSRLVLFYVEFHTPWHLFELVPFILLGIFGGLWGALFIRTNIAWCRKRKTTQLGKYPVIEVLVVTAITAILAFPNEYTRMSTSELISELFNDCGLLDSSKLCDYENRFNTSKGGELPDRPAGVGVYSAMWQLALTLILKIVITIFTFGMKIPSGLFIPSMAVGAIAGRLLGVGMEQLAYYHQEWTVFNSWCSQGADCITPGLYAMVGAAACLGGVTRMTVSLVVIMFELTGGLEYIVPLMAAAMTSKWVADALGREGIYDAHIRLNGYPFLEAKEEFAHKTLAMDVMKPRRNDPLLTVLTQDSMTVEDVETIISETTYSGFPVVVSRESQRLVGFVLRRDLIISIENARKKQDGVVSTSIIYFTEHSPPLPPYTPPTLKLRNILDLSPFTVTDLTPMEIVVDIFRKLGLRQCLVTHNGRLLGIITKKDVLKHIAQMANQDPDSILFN"},
  "source": "the supplement of paper PMC10849652",
  "note": "This is one part of the list.",
  "data": [
    {"compound": "Cn1cncc1[C@@](N)(c1ccc(Cl)cc1)c1ccc2c(c1)c(-c1cccc(Cl)c1)cc(=O)n2C [tipifarnib]", "assay": "log2 fold change, soluble protein after heating vs DMSO (PISA); higher = thermal stabilisation; K562 lysate, 10 uM; active = over 0.2 and 3.5 SD of the protein, either way, in both replicates (recomputed)", "method_in_brief": "(§1)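 Values give the log-two fold change in thermal stability against solvent controls, from duplicates. Crude K562 extract at 1 mg/mL protein, made by dounce homogenisation in PBS pH 7.4 with 1 mM MgCl2, was treated with 10 μM compound for 30 min. After 3 min heating across 48°C-58°C, aliquots were pooled, adjusted to 0.5% NP-40 at 4°C and centrifuged at 21,000xg for 90 min. The supernatant was measured by TMTpro 16plex LC-MS/MS with channel sums equalised.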", "values": [
      {"target": "CLASP1 isoform 4 (UniProt Q7Z460)", "log2 fold change": "inactive: -0.301"},
      {"target": "CLUL1 (UniProt Q15846)", "log2 fold change": "inactive: -0.046"},
      {"target": "CLK1 isoform 3 (UniProt P49759)", "log2 fold change": "inactive: -0.021"},
      {"target": "CMTR2 (UniProt Q8IYT2)", "log2 fold change": "inactive: -0.017"},
      {"target": "CLUAP1 (UniProt I3L2E1)", "log2 fold change": "inactive: -0.18"},
      {"target": "CKS2 (UniProt P33552)", "log2 fold change": "inactive: 0.106"},
      {"target": "CLN5 (UniProt O75503)", "log2 fold change": "inactive: -0.023"}
    ]},
    {"compound": "NC(=O)Nc1cc(-c2cccc(F)c2)sc1C(=O)N[C@H]1CCCNC1", "assay": "log2 fold change, soluble protein after heating vs DMSO (PISA); higher = thermal stabilisation; K562 lysate, 10 uM; active = over 0.2 and 3.5 SD of the protein, either way, in both replicates (recomputed)", "method_in_brief": "as §1", "values": [
      {"target": "CHTOP isoform 3 (UniProt Q9Y3Y2)", "log2 fold change": "inactive: 0.029"},
      {"target": "CLK2 (UniProt P49760)", "log2 fold change": "inactive: -0.065"},
      {"target": "CHPF2 (UniProt Q9P2E5)", "log2 fold change": "inactive: 0.064"},
      {"target": "CLUAP1 (UniProt Q96AJ1)", "log2 fold change": "inactive: -0.054"},
      {"target": "CMTM4 (UniProt Q8IZR5)", "log2 fold change": "inactive: -0.057"},
      {"target": "CLCN6 isoform 5 (UniProt P51797)", "log2 fold change": "inactive: -0.046"},
      {"target": "CLINT1 (UniProt Q14677)", "log2 fold change": "inactive: 0.111"},
      {"target": "CIR1 (UniProt Q86X95)", "log2 fold change": "inactive: -0.116"},
      {"target": "CKLF (UniProt Q9UBR5)", "log2 fold change": "inactive: 0.002"},
      {"target": "CLUAP1 (UniProt I3L2E1)", "log2 fold change": "inactive: -0.023"},
      {"target": "CLIP1, A0A3B3ITA2", "log2 fold change": "inactive: 0.017"},
      {"target": "CHCHD6 (UniProt Q9BRQ6)", "log2 fold change": "inactive: 0.067"},
      {"target": "CLIP2 (UniProt Q9UDT6)", "log2 fold change": "inactive: 0.026"},
      {"target": "CHURC1-FNTB (UniProt B4DL54)", "log2 fold change": "inactive: 0.017"},
      {"target": "CHST2 (UniProt Q9Y4C5)", "log2 fold change": "inactive: -0.172"},
      {"target": "CLK3 (UniProt P49761)", "log2 fold change": "inactive: 0.1"},
      {"target": "CHPF (UniProt Q8IZ52)", "log2 fold change": "inactive: 0.165"},
      {"target": "CHMP4A (UniProt H0YIN6)", "log2 fold change": "inactive: 0.041"},
      {"target": "CLEC11A (UniProt Q9Y240)", "log2 fold change": "inactive: -0.003"},
      {"target": "CKAP4 (UniProt Q07065)", "log2 fold change": "inactive: -0.079"},
      {"target": "CLCN2 (UniProt P51788)", "log2 fold change": "inactive: 0.036"},
      {"target": "CLIC6 (UniProt Q96NY7)", "log2 fold change": "inactive: 0.104"}
    ]},
    {"compound": "NC(=O)c1cnc(N[C@@H]2CCCC[C@@H]2N)nc1Nc1cccc(-n2nccn2)c1", "assay": "log2 fold change, soluble protein after heating vs DMSO (PISA); higher = thermal stabilisation; K562 lysate, 10 uM; active = over 0.2 and 3.5 SD of the protein, either way, in both replicates (recomputed)", "method_in_brief": "as §1", "values": [
      {"target": "CNBP (UniProt P62633)", "log2 fold change": "inactive: -0.076"},
      {"target": "CLCN5 isoform 2 (UniProt P51795)", "log2 fold change": "inactive: 0.305"},
      {"target": "CHTOP isoform 3 (UniProt Q9Y3Y2)", "log2 fold change": "inactive: -0.057"},
      {"target": "CLK2 (UniProt P49760)", "log2 fold change": "inactive: -0.305"},
      {"target": "CLUL1 (UniProt Q15846)", "log2 fold change": "inactive: -0.134"},
      {"target": "CLK1 isoform 3 (UniProt P49759)", "log2 fold change": "inactive: 0.22"},
      {"target": "CLUAP1 (UniProt Q96AJ1)", "log2 fold change": "inactive: 0.077"},
      {"target": "CMTM4 (UniProt Q8IZR5)", "log2 fold change": "inactive: 0.039"},
      {"target": "CLCN6 isoform 5 (UniProt P51797)", "log2 fold change": "inactive: 0.011"},
      {"target": "CKMT2 (UniProt D6RHV3)", "log2 fold change": "inactive: -0.132"},
      {"target": "CMTR2 (UniProt Q8IYT2)", "log2 fold change": "inactive: 0.087"},
      {"target": "CIR1 (UniProt Q86X95)", "log2 fold change": "inactive: 0.1"},
      {"target": "CKLF (UniProt Q9UBR5)", "log2 fold change": "inactive: -0.005"},
      {"target": "CLUAP1 (UniProt I3L2E1)", "log2 fold change": "inactive: 0"},
      {"target": "CHCHD6 (UniProt Q9BRQ6)", "log2 fold change": "inactive: 0.097"},
      {"target": "CLIP2 (UniProt Q9UDT6)", "log2 fold change": "inactive: -0.018"},
      {"target": "CHST2 (UniProt Q9Y4C5)", "log2 fold change": "inactive: 0.104"},
      {"target": "CLK3 (UniProt P49761)", "log2 fold change": "inactive: 0.016"},
      {"target": "CHMP4A (UniProt H0YIN6)", "log2 fold change": "inactive: 0.066"},
      {"target": "CLEC11A (UniProt Q9Y240)", "log2 fold change": "inactive: -0.133"},
      {"target": "CKAP4 (UniProt Q07065)", "log2 fold change": "inactive: -0.008"},
      {"target": "CLN5 (UniProt O75503)", "log2 fold change": "inactive: 0.214"},
      {"target": "CLCN2 (UniProt P51788)", "log2 fold change": "inactive: 0.067"},
      {"target": "CLIC6 (UniProt Q96NY7)", "log2 fold change": "inactive: 0.05"}
    ]}
  ]
}
